Reference: PubChem BioAssay (EPA / NIEHS)
Values joined by “and” are separate entries in the source; they are usually repeats but may differ in a detail not shown here. Equal entries are not always repeated. This list was built around the results that the source calls inconclusive (neither active nor inactive); the mix of calls is not that of the screen. Potencies beside an inconclusive call are fits to weak or partial responses and may not hold up. Some structures have more than one record in an assay (separate samples or runs), and their calls can disagree. Active and inactive are the calls of the source. How the source made its calls: active means hit-call score of the fitted dose curve at least 0.9, where 1 is the maximum; inconclusive means response in the unintended direction; inactive means score below 0.9.

Sequences of proteins named here, by UniProt entry; tags and fusion partners are left off.
UniProt P04637, whole entry, looked up: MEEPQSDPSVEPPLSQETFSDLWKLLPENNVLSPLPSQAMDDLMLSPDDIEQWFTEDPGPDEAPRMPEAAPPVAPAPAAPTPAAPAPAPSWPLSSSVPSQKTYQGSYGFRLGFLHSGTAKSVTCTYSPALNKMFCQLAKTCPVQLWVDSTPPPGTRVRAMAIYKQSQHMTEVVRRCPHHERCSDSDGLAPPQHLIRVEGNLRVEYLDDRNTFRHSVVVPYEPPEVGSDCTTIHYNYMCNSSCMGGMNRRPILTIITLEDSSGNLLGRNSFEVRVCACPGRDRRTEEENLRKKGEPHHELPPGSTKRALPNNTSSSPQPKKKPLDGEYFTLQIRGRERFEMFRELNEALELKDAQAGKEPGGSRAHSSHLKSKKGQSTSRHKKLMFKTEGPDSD

System: not listed separately
Assay: TOX21_p53_BLA_p4_viability: Viability Assessment in the Tox21 HCT-116 p53 Agonism Beta-lactamase Assay, Phase 4 (AID 2283597);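 further: hits lower the luminescence signal meaning cytotoxicity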
How it was run: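 ATP content by CellTiter-Glo luminescence, 30 min RT, read after the beta-lactamase ratio step. Cells: HCT116, 4000/well, compound added after 5 h, exposure 16 h at 37C. Signal loss = reduced viability.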
With `CC(CN(C)C)CN1c2ccccc2S(=O)(=O)c2ccccc21` (stereo not given) the AC50 was inconclusive: 23 µM.
In the case of `O=[N+]([O-])c1cc(Cl)c(Cl)c(Cl)c1Cl`, the outcome is reported as “inactive”.
For `O=S(=O)(O)CO`, the AC50 was inconclusive: 45.6 µM.
For `CCCCCCCCCCCCCCCC(=O)O[C@@H]1CC(C)=C(/C=C/C(C)=C/C=C/C(C)=C/C=C/C=C(C)/C=C/C=C(C)/C=C/C2=C(C)C[C@@H](OC(=O)CCCCCCCCCCCCCCC)CC2(C)C)C(C)(C)C1`, the outcome was “inactive”.
For `NCCN1CCNC1=O`, the AC50 was inconclusive: 46.1 µM.
With `CC(CNC(=O)c1cccnc1)NC(=O)c1cccnc1` (stereo not given) the AC50 was inconclusive: 23 µM.
For `OCCCCCCCl`, the AC50 was inconclusive: 47.6 µM.
For `CN(C)CCCOc1nn(Cc2ccccc2)c2ccccc12`, the outcome was “inactive”.
With `Cc1ccc(C(=O)c2ccc(CC(=O)O)n2C)cc1` the AC50 was inconclusive: 10.3 µM.
For `NS(=O)(=O)c1ccccc1Cl`, the outcome was “inactive”.
For `OCCOCC#CCOCCO`, the AC50 was inconclusive: 46.1 µM.
With `CC(C)(C)C(=O)OCOP(=O)(COCCn1cnc2c(N)ncnc21)OCOC(=O)C(C)(C)C` the outcome was “inactive”.
For `NC(=O)C1(N2CCCCC2)CCN(CCCC(=O)c2ccc(F)cc2)CC1`, the outcome was “inactive”.
In the case of `CC(C)NNC(=O)c1ccncc1`, the outcome is reported as “inactive”.
For `COc1ccccc1N1CCN(CCCNc2cc(=O)n(C)c(=O)n2C)CC1`, the AC50 was inconclusive: 4.57 µM.
For `CC(CCc1ccc(O)cc1)NCC(O)c1ccc(O)cc1` (stereo not given), the AC50 was inconclusive: 4.57 µM.
With `CN1CCN2c3ncccc3Cc3ccccc3C2C1` (stereo not given) the AC50 was inconclusive: 9.76 µM.
In the case of `FC(F)(F)c1ccccc1Cl`, the outcome is reported as “inactive”.
For `CCN1CCCC(OC(=O)C(c2ccccc2)c2ccccc2)C1` (stereo not given), the AC50 was inconclusive: 10.3 µM.
With `COc1ccc2[nH]c(S(=O)Cc3ncc(C)c(OC)c3C)nc2n1` (stereo not given) the AC50 was inconclusive: 23 µM.
With `CC(=O)OCC(C)C` the AC50 was inconclusive: 45.2 µM.
With `CC(C)CCCC(=O)O` the outcome was “inactive”.
With `CN1CCN(C2Cc3ccccc3Sc3ccc(Cl)cc32)CC1` (stereo not given) the AC50 was active: 34.3 µM.
For `O=C1CCN(c2ccccc2)N1`, the outcome was “inactive”.
For `Oc1ccc(C2(c3ccc(O)cc3)CC3CC2C2CCCC32)cc1` (stereo not given), the AC50 was active: 55.4 µM.
With `CC(CCc1ccccc1)NCC(O)c1ccc(O)c(C(N)=O)c1` (stereo not given) the AC50 was inconclusive: 46.1 µM.
In the case of `CN(C)CCN1C(=O)c2ccccc2N(C)c2ccccc21`, the AC50 is reported as inconclusive: 4.57 µM.
With `Brc1ccc(-c2ccccc2)cc1` the AC50 was inconclusive: 15.5 µM.
For `[Cl-].[Cl-].[NH-]CC[NH-].[Pt+4]`, the outcome was “inactive”.
In the case of `Cc1ccc(/C(=C\CN2CCCC2)c2ccccn2)cc1`, the AC50 is reported as inconclusive: 3.42 µM.
In the case of `C1=C\CC/C=C\CC/1`, the AC50 is reported as inconclusive: 1.58 µM.
In the case of `CCOC(=O)CCC(=O)O[C@H]1[C@H](O[C@@H]2[C@@H](C)[C@H](O[C@H]3C[C@@](C)(OC)[C@@H](O)[C@H](C)O3)[C@@H](C)C(=O)O[C@H](CC)[C@@](C)(O)[C@H](O)[C@@H](C)C(=O)[C@H](C)C[C@@]2(C)O)O[C@H](C)C[C@@H]1N(C)C`, the outcome is reported as “inactive”.
For `CCOc1ccc(S(=O)(=O)O)c2cccnc12`, the AC50 was inconclusive: 23 µM.
In the case of `Cc1ccc(Cl)cc1Cl`, the AC50 is reported as inconclusive: 76.1 µM.
In the case of `CN=C(NC#N)Nc1ccc(C2=NNC(=O)CC2C)cc1` (stereo not given), the AC50 is reported as inconclusive: 0.0097 µM.
In the case of `CCCCC1=NC2(CCCC2)C(=O)N1Cc1ccc(-c2ccccc2-c2nn[nH]n2)cc1`, the AC50 is reported as inconclusive: 23 µM.
With `CC(=O)OCC(=O)[C@@]1(O)CCC2C3CCC4=CC(=O)CC[C@]4(C)C3C(O)C[C@@]21C` (stereo not given in full) the AC50 was inconclusive: 5.65e-05 µM.
In the case of `O=S1(=O)c2cccc3cccc(c23)N1CCCN1CCN(c2ccc(F)cc2)CC1`, the AC50 is reported as active: 41.2 µM.
With `COC(=O)Nc1nc2ccc(C(=O)c3ccccc3)cc2[nH]1` the AC50 was inconclusive: 3.75 µM.
For `CC[C@@]1(O)C[C@@H]2CN(CCc3c([nH]c4ccccc34)[C@@](C(=O)OC)(c3cc4c(cc3OC)N(C)[C@H]3[C@@](O)(C(=O)OC)[C@H](OC(C)=O)[C@]5(CC)C=CCN6CC[C@]43[C@@H]65)C2)C1`, the AC50 was inconclusive: 0.503 µM.

Molecular target: Cellular tumor antigen p53 (Homo sapiens) (UniProt P04637)
Assay: TOX21_p53_BLA_p5_ratio: Tox21 HCT-116 p53 Agonism Beta-lactamase Assay, Ratio, Phase 5 (AID 2283599)
How it was run: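 Beta-lactamase reporter ratio (blue 460 nm over green 530 nm, 405 nm excitation) after 2 h CCF4-AM loading, in HCT-116 cells exposed 16 h at 37 C to compounds pinned at 217-fold dilution. Increases relative to DMSO baseline scored.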
With `CC(CN(C)C)CN1c2ccccc2S(=O)(=O)c2ccccc21` (stereo not given) the outcome was “inactive”.
With `O=[N+]([O-])c1cc(Cl)c(Cl)c(Cl)c1Cl` the AC50 was inconclusive: 83.1 µM.
For `O=S(=O)(O)CO`, the outcome was “inactive”.
In the case of `CCCCCCCCCCCCCCCC(=O)O[C@@H]1CC(C)=C(/C=C/C(C)=C/C=C/C(C)=C/C=C/C=C(C)/C=C/C=C(C)/C=C/C2=C(C)C[C@@H](OC(=O)CCCCCCCCCCCCCCC)CC2(C)C)C(C)(C)C1`, the AC50 is reported as inconclusive: 23 µM.
In the case of `NCCN1CCNC1=O`, the AC50 is reported as inconclusive: 46.1 µM.
In the case of `CC(CNC(=O)c1cccnc1)NC(=O)c1cccnc1` (stereo not given), the AC50 is reported as inconclusive: 23 µM.
In the case of `OCCCCCCCl`, the AC50 is reported as inconclusive: 47.6 µM.
With `CN(C)CCCOc1nn(Cc2ccccc2)c2ccccc12` the AC50 was inconclusive: 10.3 µM.
In the case of `Cc1ccc(C(=O)c2ccc(CC(=O)O)n2C)cc1`, the AC50 is reported as inconclusive: 10.3 µM.
In the case of `NS(=O)(=O)c1ccccc1Cl`, the AC50 is reported as inconclusive: 84.9 µM.
For `OCCOCC#CCOCCO`, the AC50 was inconclusive: 46.1 µM.
With `CC(C)(C)C(=O)OCOP(=O)(COCCn1cnc2c(N)ncnc21)OCOC(=O)C(C)(C)C` the AC50 was inconclusive: 23 µM.
In the case of `NC(=O)C1(N2CCCCC2)CCN(CCCC(=O)c2ccc(F)cc2)CC1`, the outcome is reported as “inactive”.
For `CC(C)NNC(=O)c1ccncc1`, the AC50 was inconclusive: 23 µM.
For `COc1ccccc1N1CCN(CCCNc2cc(=O)n(C)c(=O)n2C)CC1`, the AC50 was inconclusive: 23 µM.
For `CC(CCc1ccc(O)cc1)NCC(O)c1ccc(O)cc1` (stereo not given), the AC50 was inconclusive: 23 µM.
With `CN1CCN2c3ncccc3Cc3ccccc3C2C1` (stereo not given) the AC50 was inconclusive: 23 µM.
In the case of `FC(F)(F)c1ccccc1Cl`, the AC50 is reported as inconclusive: 47.1 µM.
In the case of `CCN1CCCC(OC(=O)C(c2ccccc2)c2ccccc2)C1` (stereo not given), the AC50 is reported as inconclusive: 10.3 µM.
With `COc1ccc2[nH]c(S(=O)Cc3ncc(C)c(OC)c3C)nc2n1` (stereo not given) the AC50 was inconclusive: 23 µM.
For `CC(=O)OCC(C)C`, the AC50 was inconclusive: 45.2 µM.
For `CC(C)CCCC(=O)O`, the AC50 was inconclusive: 46.1 µM.
With `CN1CCN(C2Cc3ccccc3Sc3ccc(Cl)cc32)CC1` (stereo not given) the AC50 was inconclusive: 23 µM.
For `O=C1CCN(c2ccccc2)N1`, the AC50 was inconclusive: 46.2 µM.
With `Oc1ccc(C2(c3ccc(O)cc3)CC3CC2C2CCCC32)cc1` (stereo not given) the AC50 was inconclusive: 77 µM.
With `CC(CCc1ccccc1)NCC(O)c1ccc(O)c(C(N)=O)c1` (stereo not given) the AC50 was inconclusive: 78.3 µM and inconclusive: 23 µM.
With `CN(C)CCN1C(=O)c2ccccc2N(C)c2ccccc21` the AC50 was inconclusive: 43.7 µM.
For `Brc1ccc(-c2ccccc2)cc1`, the AC50 was inconclusive: 46 µM.
In the case of `[Cl-].[Cl-].[NH-]CC[NH-].[Pt+4]`, the AC50 is reported as inconclusive: 23 µM.
With `Cc1ccc(/C(=C\CN2CCCC2)c2ccccn2)cc1` the AC50 was inconclusive: 43.7 µM and inconclusive: 8.38 µM.
For `C1=C\CC/C=C\CC/1`, the AC50 was inconclusive: 86.6 µM.
In the case of `CCOC(=O)CCC(=O)O[C@H]1[C@H](O[C@@H]2[C@@H](C)[C@H](O[C@H]3C[C@@](C)(OC)[C@@H](O)[C@H](C)O3)[C@@H](C)C(=O)O[C@H](CC)[C@@](C)(O)[C@H](O)[C@@H](C)C(=O)[C@H](C)C[C@@]2(C)O)O[C@H](C)C[C@@H]1N(C)C`, the AC50 is reported as inconclusive: 23 µM.
For `CCOc1ccc(S(=O)(=O)O)c2cccnc12`, the outcome was “inactive”.
With `Cc1ccc(Cl)cc1Cl` the AC50 was inconclusive: 46.1 µM.
In the case of `CN=C(NC#N)Nc1ccc(C2=NNC(=O)CC2C)cc1` (stereo not given), the AC50 is reported as inconclusive: 23 µM.
In the case of `CCCCC1=NC2(CCCC2)C(=O)N1Cc1ccc(-c2ccccc2-c2nn[nH]n2)cc1`, the AC50 is reported as inconclusive: 23 µM.
For `CC(=O)OCC(=O)[C@@]1(O)CCC2C3CCC4=CC(=O)CC[C@]4(C)C3C(O)C[C@@]21C` (stereo not given in full), the AC50 was inconclusive: 23 µM.
In the case of `O=S1(=O)c2cccc3cccc(c23)N1CCCN1CCN(c2ccc(F)cc2)CC1`, the outcome is reported as “inactive”.
For `COC(=O)Nc1nc2ccc(C(=O)c3ccccc3)cc2[nH]1`, the outcome was “inactive”.
In the case of `CC[C@@]1(O)C[C@@H]2CN(CCc3c([nH]c4ccccc34)[C@@](C(=O)OC)(c3cc4c(cc3OC)N(C)[C@H]3[C@@](O)(C(=O)OC)[C@H](OC(C)=O)[C@]5(CC)C=CCN6CC[C@]43[C@@H]65)C2)C1`, the AC50 is reported as active: 0.0173 µM.
